According to patent US20230414780A1:
Results are given in words; binding and its absence hold for the method and conditions named. Some binding calls cover weakened binding; strength is not graded here. For some of these results: Where a sequence is shown, tags or fusion partners need not be part of it.

How the values were obtained:
[1] = target: human transferrin receptor (hTfR) fused to EGFP, on CHO cells (human) (UniProt P02786); assay: flow cytometry, CHO-hTfR-GFP cells
[2] = target: human transferrin receptor (hTfR) fused to EGFP, on CHO cells (human) (UniProt P02786); assay: flow cytometry on CHO-hTfR-EGFP cells, 1 hr at 4 C, anti-6His + Alexa647 anti-mouse; ratio to background fluorescence
[3] = target: human transferrin receptor (hTfR) fused to EGFP, on CHO cells (human) (UniProt P02786); assay: flow cytometry, CHO-hTfR-EGFP cells
[4] = target: human transferrin receptor (hTfR) fused to EGFP, on CHO cells (human) (UniProt P02786); assay: flow cytometry screening, CHO cells
[5] = target: human transferrin receptor (hTfR) fused to EGFP, on CHO cells (human) (UniProt P02786); assay: competition flow cytometry on CHO-hTfR-EGFP cells, 4 C; VHH competitor in dilution series, phage-H1 tracer at EC80, anti-M13-A647
[6] = target: human transferrin receptor (hTfR) fused to EGFP, on CHO cells (human) (UniProt P02786); assay: competition flow cytometry on CHO-hTfR-EGFP cells, 4 C; VHH competitor in dilution series, phage-B6 tracer at EC80, anti-M13-A647
[7] = target: mouse transferrin receptor (mTfR) fused to EGFP, on CHO cells (mouse) (UniProt Q62351); assay: flow cytometry on CHO-mTfR-EGFP cells, 1 hr at 4 C, anti-6His + Alexa647 anti-mouse

| Binder | binding [3] | further results |
| --- | --- | --- |
| VHH B-siGFPst1 bioconjugate (VHH, not shown: small tags and cut ends, siGFPst1 siRNA linked to the Gln of the C-terminal Q-tag) VHH: EVQLVESGGGVVQPGGSLRLSCAASGEIFSINFMRWYRQAPGKQREWVAGFTRDGSTNYPDSAKGRFTISRDNAKNTVYLQIDSLKPEDTAVYYCYMLDTWGQGTQVTVSS | binds | binding [1]: binds; binding [2]: binds |
| E8 (VHH) VHH: EVQLVESGGRLVQAGGSLRLSCTASGLAFSTHTMHWFRQAPGKEREFVGAIRWSDEDTEYADSVKGRFTISRDNAKSTVYLQMNNLKPEDTAVYYCAAARGVGTSGHMKYWGQGTQVTVSS | binds | binding [4]: binds; binding [5]: binds |
| H1 (VHH) VHH: EVQLVESGGGLVQPGGSLRLSCAASGFASHLYAIGWFRQAPGKEREKVSCISSNDGSTYYADSVKGRFTISRDTVKDMVYLQMNSLKPEDTAVYYCATDLTVHCFMAEYDWWGQGTQVTVSS | binds | binding [4]: binds; binding [5]: binds |
| C3 (VHH) VHH: EVQLVQSGGGLVQAGGSLRLSCAASGRDFSDTSMAWHRQAPGKERLWVAGIRSGSTSTSYADSVKGRFTISRDDAKNTVYLQMDNLTPEDTAVYFCYSKGYWGQGTQVTVSS | binds | binding [6]: binds |
| F2a (VHH) VHH: EVQLVESGGGLVQPGESLRLSCTASESISIYGVGWYRQAPGEQRVLVAHLKRNGLTEYKDSVKGRFTISRDNARNTIYLEMKNLKPEDTAIYYCNTALGSVLPWGRGTQVTVSS | binds | binding [6]: binds |
| VHH A12 (C5^V12) (VHH) VHH: EVQLVESGGGVVQPGGSLKLSCVASGTDFSINFIRWYRQAPGKQREFVAGITATGNTNYADSMKGRFTISRDNTKNAVYLQIDSLKPEDTAVYYCYMLDKWGQGTQVTVSS | – | binding [7]: no binding (tested: about 5x10^4 nM) |
| VHH A21 (C5^h2) (VHH) VHH: EVQLVESGGGVVQPGGSLRLSCAASGTDFSINFIRWVRQAPGKQREFVAGFTATGNTNYADSVKGRFTISRDNAKNTLYLQMNSLRPEDTAVYYCYMLDKWGQGTQVTVSS | binds | – |
| C5^h23 (VHH) VHH: EVQLVESGGGVVQPGGSLRLSCAASGTDFSINFIRWVRQAPGKQREFVAGFTATGNTNYADSVKGRFTISRDNAKNTLYLQMNSLRPEDTAVYYCYMLDKWGQGTQVTVSS | binds | – |
| B7 (VHH) VHH: QVQLVQSGGGLVQAGGSLTLSCTASGRPLSDYPMGWFRRAPEKERELVASISRTGDGTYYADGMRGRFTISRDNSENTVSLQMNNLKPEDTAVYYCGAGINPTKYWGQGTQVTVSS | binds | – |
| H7 (VHH) VHH: EVQLVESGGGLVQAGGSLRLSCTASGRPISDYPMGWFRRAPGKDRELVASISRTGDGTYYANSMKERFTISRDNAQNTVSLQISSLKPEDTAVYYCGAGINPTRYWGQGTQVTVSS | binds | – |
| E2 (VHH) VHH: QVQLVQSGGGLVQAGGSLRLSCAASGSIFSDITLAWHRQIPGKEREWVAGISRSGSPSYRDSVKGRFTISRDNAKNTVFLQMNSLEPEDTGVYYCYSRGYWGQGTQVTVSS | binds | – |
